This is one part of the list.

The assay addresses T1, OsSMF1 (Oryza sativa, UniProt Q6ZLB0 1-436).
T1 sequence: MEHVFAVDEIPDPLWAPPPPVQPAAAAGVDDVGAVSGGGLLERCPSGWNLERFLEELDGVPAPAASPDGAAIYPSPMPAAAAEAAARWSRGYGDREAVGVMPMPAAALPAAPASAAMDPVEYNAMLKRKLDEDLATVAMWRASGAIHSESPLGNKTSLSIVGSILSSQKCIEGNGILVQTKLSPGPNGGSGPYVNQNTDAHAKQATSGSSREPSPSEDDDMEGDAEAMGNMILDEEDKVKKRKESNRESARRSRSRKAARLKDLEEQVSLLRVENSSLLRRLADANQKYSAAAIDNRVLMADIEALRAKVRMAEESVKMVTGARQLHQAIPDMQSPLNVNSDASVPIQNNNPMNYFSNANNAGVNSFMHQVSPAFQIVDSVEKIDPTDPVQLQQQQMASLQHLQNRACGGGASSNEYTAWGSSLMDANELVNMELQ
Put plainly: protein-binding microarray (RPBM); PBS, 2% BSA, 51.3 ng/ul salmon testes DNA, 50 uM zinc acetate, 200 nM TF, 25 C, 1 h; high values mean tight binding. Particulars: protein: recombinant; tags: N-terminal polyhistidine and DsRed monomer fusion (pET32a); chain copies: 2; label: CyDye5-dUTP incorporated in the synthesized complementary strand; 3' TTTTT single-stranded linker to array surface; dsDNA, one strand shown. The method, boiled down: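 Transcription factors, each fused N-terminally to a polyhistidine tag and DsRed, were expressed in E. coli BL21-CodonPlus and purified on Ni–NTA. A custom Agilent array was made double-stranded by primer extension with Cy5-dUTP and blocked with 2% BSA. It was incubated with 200 nM protein in PBS, 2% BSA, salmon testes DNA and 50 µM zinc acetate at 25 °C for 1 h, then washed. The binding signal is per-feature fluorescence intensity (arbitrary units) read on an Axon 4000B scanner.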
Consider “CAGCAGTTTGCTCACCCGAGCAACCTGTAGGTCATCATGTCGGAGTCACCTAGTGCAG”, for which the binding signal was 4600 fluorescence intensity (a.u.).
For “ATGCATGGCTACCATGGCTGCATATTCCTTTCACGATTACCGGAGTCACCTAGTGCAG”, the binding signal is 3330 fluorescence intensity (a.u.).
For “CCGCATCGGATCCCCATCTCCCGATCCCACACGGTCACACCGGAGTCACCTAGTGCAG” the value was 3240 fluorescence intensity (a.u.); for “AAGTGTGGAGGTGGCATATCTTTATCCATTTGGTTGTTATCGGAGTCACCTAGTGCAG”, 4430 fluorescence intensity (a.u.); for “CCTCAGTCCCGCCGCCACCGCCACCGCCACCACTACCACTCGGAGTCACCTAGTGCAG”, 3800 fluorescence intensity (a.u.).
On to “CCGTTCTCTCTTCGTAGCCTGCGTGGCCTTGCCCCTTCGCCGGAGTCACCTAGTGCAG”, for which the binding signal was 3770 fluorescence intensity (a.u.).
For the sequence “AGCCAGCTGCAGCACGGACTCCAAGACATAATGTGTGTATCGGAGTCACCTAGTGCAG”, the binding signal was 3880 fluorescence intensity (a.u.).
For the sequence “GGGTTGACGTCAGGCTCGGCCCGGCCCTCCCCAGCCCATTCGGAGTCACCTAGTGCAG”, the binding signal is 5660 fluorescence intensity (a.u.).
For “AAAATTAAACGACATTCCCCGAGAGCACCGCCCCGTCAAGCGGAGTCACCTAGTGCAG” the value was 30500 fluorescence intensity (a.u.); for “AATAATTTTGTGTTCGCTATTGGAGGGTACACTAAGTTGACGGAGTCACCTAGTGCAG”, 25300 fluorescence intensity (a.u.); for “AATGGAAATATCTGATGATTTACGTCAGCGAAATTGTTGTCGGAGTCACCTAGTGCAG”, 7300 fluorescence intensity (a.u.).
In the case of “CGTTGCCGCCATCACAGTCACTATCATGGCCAGATCCATCCGGAGTCACCTAGTGCAG”, the binding signal was 3710 fluorescence intensity (a.u.).
With “ATGATATAATAACGATGACAATATCTTACTAGCAAATCATCGGAGTCACCTAGTGCAG” the figure was 30000 fluorescence intensity (a.u.); with “TTATCTTTTACGGGGAGGAGACACGTCGACTCGTGAATATCGGAGTCACCTAGTGCAG”, 7690 fluorescence intensity (a.u.).
Consider “ATGGCGGAGGATGAGTCGGCGTCGTGGTTTCAGTACCCGGCGGAGTCACCTAGTGCAG”, for which the binding signal was 4180 fluorescence intensity (a.u.).
“TCTTCTTTAAAAGCAGGAGTAGATCTTGGATCCTTCGAGTCGGAGTCACCTAGTGCAG”: the binding signal was 16900 fluorescence intensity (a.u.).
Consider “CCGCACCGGGCACACCGTGTCGATCATCGTCGTCATCCCCCGGAGTCACCTAGTGCAG”, for which the binding signal was 4050 fluorescence intensity (a.u.).
For “ATTTTATTGCCACATAAGCGCCACGTCAATGCCACGTGGGCGGAGTCACCTAGTGCAG” the value was 56000 fluorescence intensity (a.u.); for “GATAAGCAACCAAGCCAGGTCACTCTCCTCTACTACATCCCGGAGTCACCTAGTGCAG”, 5800 fluorescence intensity (a.u.); for “CATGTACTCCCGTCCAGGCGTCCGCGTCATCGCGTATCGCCGGAGTCACCTAGTGCAG”, 8520 fluorescence intensity (a.u.).
For the sequence “CGTCGGTTTGCTGAATCAGCAAAAGCCGACCACCGACCCCCGGAGTCACCTAGTGCAG”, the binding signal was 6910 fluorescence intensity (a.u.).
Regarding “AACCTAAACCAATTAGGCCCCGTTCTTTCACGATTAAGATCGGAGTCACCTAGTGCAG”, the binding signal was 22900 fluorescence intensity (a.u.).
As for “AAGGATCGACGAGCCGACACGTCGGTCTCATTCGATGGGCCGGAGTCACCTAGTGCAG”, the binding signal is 4820 fluorescence intensity (a.u.).
With “GCGGCGACGACCACGCCGGCGGTGACGAAGCCATGACCACCGGAGTCACCTAGTGCAG”, the binding signal is 5780 fluorescence intensity (a.u.).
In the case of “TCCCAGGTGGATGGTGAATTGGTGATCTGTGTCAGTTCATCGGAGTCACCTAGTGCAG”, the binding signal was 3510 fluorescence intensity (a.u.).
With “GCGTGGACGCGGCCGGGGCGCGACACGTCAACAGGCTCTGCGGAGTCACCTAGTGCAG” the figure was 13100 fluorescence intensity (a.u.); with “TCCACCTGACGGGCCGGAGCCTGACGCGGGCCGCGGGGAACGGAGTCACCTAGTGCAG”, 3190 fluorescence intensity (a.u.).
Consider “TCCTTTCCCTAGCCACCTCACACACCATCTGCTTGCATCTCGGAGTCACCTAGTGCAG”, for which the binding signal was 6270 fluorescence intensity (a.u.).
Turning to “ACTAAGCTGCCACGTGGATGCCACGTCAGCGAAAACCACCCGGAGTCACCTAGTGCAG”, the binding signal was 61800 fluorescence intensity (a.u.).
Turning to “TCCTAACCCATCCAACTCATCTATATAAGCTCCAACCATTCGGAGTCACCTAGTGCAG”, the binding signal is 4330 fluorescence intensity (a.u.).
As for “ACGAACTTAAAAGTTGACTCATACATGGATGACGTAACAACGGAGTCACCTAGTGCAG”, the binding signal was 3890 fluorescence intensity (a.u.).
“ACCCTCCCGCGACCGCCGCGTGTATGCGCCGCCGTCGCCGCGGAGTCACCTAGTGCAG”: the binding signal is 4360 fluorescence intensity (a.u.).
As for “GATTCATTTGCCACGTCAATGCCACGTTGGACGAGGACCTCGGAGTCACCTAGTGCAG”, the binding signal is 37700 fluorescence intensity (a.u.).
With “GGGCTTCTGTTGGGGCCGATCCAGTTGTCGGGCCTCATGACGGAGTCACCTAGTGCAG” the figure was 3830 fluorescence intensity (a.u.).
In the case of “ACAAAGGAGAAGAAGCCATGATGTGGAGTTGGCCGGTGGCCGGAGTCACCTAGTGCAG”, the binding signal was 3800 fluorescence intensity (a.u.).
With “AGGATCCCGTACGTGGAGTATGCGAACGCCGCATCGCTCTCGGAGTCACCTAGTGCAG”, the binding signal is 4650 fluorescence intensity (a.u.).
For “GGCTATCAGATATGCCGACGTTATCAACTCTGTTGTCCTGCGGAGTCACCTAGTGCAG” the value was 3380 fluorescence intensity (a.u.); for “ACGTACGTGTCGTTCTTGACTATTTCTAGCCGGCCAATCTCGGAGTCACCTAGTGCAG”, 5510 fluorescence intensity (a.u.).
Consider “AAAGCTGACCTATCTTGATCTCCACAACAACAGCCTCACTCGGAGTCACCTAGTGCAG”, for which the binding signal is 3550 fluorescence intensity (a.u.).
On to “TTCCAAATCTACTTTGACGGTATTTATGGAATCAGACATTCGGAGTCACCTAGTGCAG”, for which the binding signal was 25400 fluorescence intensity (a.u.).
Regarding “AAAGCTTAACTGGCTAGGTTTCTTACAGTGAAACTAATCACGGAGTCACCTAGTGCAG”, the binding signal is 38900 fluorescence intensity (a.u.).
With “CGTTACCGCTTTCATCACTGCCTCCGTCACGCGCTGCCTACGGAGTCACCTAGTGCAG” the figure was 4310 fluorescence intensity (a.u.).

The values are drawn from PMC7819943, “Rice protein-binding microarrays: a tool to detect cis-acting elements near promoter regions in rice”.
